Assay results from publication PMC9525061.
No constants are given. Whether binding was seen depends on the method and setting. For some of these results: In cells and extracts the contact can be indirect. Some entries that bind do so weakly or less than the wild type. Where a sequence is shown, tags or fusion partners need not be part of it.

Amino acid sequences for entries named in this document (tags omitted). Residues count along the entry.
UniProt O22476, residues 24-1196: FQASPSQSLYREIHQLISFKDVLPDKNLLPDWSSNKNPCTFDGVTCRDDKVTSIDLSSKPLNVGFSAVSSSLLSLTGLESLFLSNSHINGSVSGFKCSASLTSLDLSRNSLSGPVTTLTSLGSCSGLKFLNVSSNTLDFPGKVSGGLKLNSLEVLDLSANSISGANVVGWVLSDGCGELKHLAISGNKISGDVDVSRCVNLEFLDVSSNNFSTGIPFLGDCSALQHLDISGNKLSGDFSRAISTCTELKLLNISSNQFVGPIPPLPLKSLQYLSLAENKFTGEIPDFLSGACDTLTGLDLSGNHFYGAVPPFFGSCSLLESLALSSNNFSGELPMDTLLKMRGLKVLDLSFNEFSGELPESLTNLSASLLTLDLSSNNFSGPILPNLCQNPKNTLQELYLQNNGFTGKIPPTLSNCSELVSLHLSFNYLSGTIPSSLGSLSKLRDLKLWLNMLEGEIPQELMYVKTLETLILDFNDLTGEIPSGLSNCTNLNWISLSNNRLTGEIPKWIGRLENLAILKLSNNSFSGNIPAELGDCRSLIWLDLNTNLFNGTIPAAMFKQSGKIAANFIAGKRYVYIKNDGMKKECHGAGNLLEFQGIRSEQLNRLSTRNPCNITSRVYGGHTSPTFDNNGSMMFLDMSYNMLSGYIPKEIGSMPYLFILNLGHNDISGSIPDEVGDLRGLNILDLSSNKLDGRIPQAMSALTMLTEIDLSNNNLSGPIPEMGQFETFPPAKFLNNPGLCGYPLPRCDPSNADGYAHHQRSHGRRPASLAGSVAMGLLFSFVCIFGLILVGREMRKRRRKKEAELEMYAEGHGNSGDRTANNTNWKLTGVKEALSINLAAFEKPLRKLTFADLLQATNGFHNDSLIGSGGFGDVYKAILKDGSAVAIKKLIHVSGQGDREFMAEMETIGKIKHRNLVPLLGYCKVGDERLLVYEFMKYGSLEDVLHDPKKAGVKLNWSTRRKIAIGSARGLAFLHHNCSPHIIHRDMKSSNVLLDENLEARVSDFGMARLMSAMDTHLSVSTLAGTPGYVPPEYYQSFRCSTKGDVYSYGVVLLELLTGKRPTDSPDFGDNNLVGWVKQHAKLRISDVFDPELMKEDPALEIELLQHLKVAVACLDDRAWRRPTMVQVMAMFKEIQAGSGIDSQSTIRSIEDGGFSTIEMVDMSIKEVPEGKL

T1: CNGC10-GFP (donor fusion for FRET-FLIM) (Arabidopsis thaliana) (UniProt Q9LNJ0)
T1 sequence: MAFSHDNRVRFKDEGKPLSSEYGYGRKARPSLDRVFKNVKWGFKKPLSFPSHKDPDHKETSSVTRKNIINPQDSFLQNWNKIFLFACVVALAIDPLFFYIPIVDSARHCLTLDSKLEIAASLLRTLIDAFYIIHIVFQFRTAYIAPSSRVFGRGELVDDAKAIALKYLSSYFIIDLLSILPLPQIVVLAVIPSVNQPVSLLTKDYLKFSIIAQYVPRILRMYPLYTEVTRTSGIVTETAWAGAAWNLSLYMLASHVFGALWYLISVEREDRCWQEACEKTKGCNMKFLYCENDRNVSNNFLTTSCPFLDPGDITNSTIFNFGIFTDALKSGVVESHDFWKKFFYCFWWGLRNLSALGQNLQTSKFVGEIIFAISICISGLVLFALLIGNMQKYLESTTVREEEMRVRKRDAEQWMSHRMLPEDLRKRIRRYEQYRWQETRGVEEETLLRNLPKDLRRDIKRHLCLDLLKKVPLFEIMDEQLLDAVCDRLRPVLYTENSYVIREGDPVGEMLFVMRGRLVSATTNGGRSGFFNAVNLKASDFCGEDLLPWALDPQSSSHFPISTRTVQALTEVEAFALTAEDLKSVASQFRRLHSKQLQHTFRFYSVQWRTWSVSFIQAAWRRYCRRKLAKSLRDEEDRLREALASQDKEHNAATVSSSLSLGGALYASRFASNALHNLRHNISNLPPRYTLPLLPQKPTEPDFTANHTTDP

T2: CNGC10 (cyclic nucleotide-gated ion channel 10), Cub fusion for the mating-based split-ubiquitin system (Arabidopsis thaliana) (UniProt Q9LNJ0)
T2 sequence: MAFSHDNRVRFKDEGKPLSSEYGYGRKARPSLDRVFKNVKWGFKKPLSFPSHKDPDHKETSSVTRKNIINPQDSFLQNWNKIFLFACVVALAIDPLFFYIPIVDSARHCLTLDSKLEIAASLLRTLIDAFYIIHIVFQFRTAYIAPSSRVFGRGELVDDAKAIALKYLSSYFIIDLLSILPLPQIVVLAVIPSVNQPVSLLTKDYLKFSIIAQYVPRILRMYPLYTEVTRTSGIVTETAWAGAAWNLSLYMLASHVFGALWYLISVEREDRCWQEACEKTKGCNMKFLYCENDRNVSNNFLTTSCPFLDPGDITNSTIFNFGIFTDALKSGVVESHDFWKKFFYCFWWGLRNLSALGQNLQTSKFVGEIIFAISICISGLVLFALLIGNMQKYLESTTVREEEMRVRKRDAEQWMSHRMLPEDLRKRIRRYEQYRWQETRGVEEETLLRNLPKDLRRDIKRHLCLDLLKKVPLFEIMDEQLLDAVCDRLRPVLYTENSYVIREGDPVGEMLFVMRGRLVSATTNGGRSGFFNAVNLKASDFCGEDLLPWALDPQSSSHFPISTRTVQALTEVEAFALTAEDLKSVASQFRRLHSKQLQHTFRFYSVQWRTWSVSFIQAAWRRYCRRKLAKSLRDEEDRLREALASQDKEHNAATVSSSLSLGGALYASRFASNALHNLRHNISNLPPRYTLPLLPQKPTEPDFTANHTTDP


Tests used:
[1] = target: T1, CNGC10-GFP (donor fusion for FRET-FLIM) (Arabidopsis thaliana); experiment: FRET or BRET; FRET-FLIM; CNGC10-GFP donor with RFP or mCherry acceptor fusions in transiently transformed Nicotiana benthamiana epidermal leaf cells, 2-3 days after infiltration; reduction of the GFP fluorescence lifetime
[2] = target: T2, CNGC10 (cyclic nucleotide-gated ion channel 10), Cub fusion for the mating-based split-ubiquitin system (Arabidopsis thaliana); experiment: two-hybrid; yeast mating-based split-ubiquitin system (mbSUS); Cub (pMetYC) and Nub (pXNubA22) fusions; growth on interaction selective plates (CSM -Leu -Trp -Ura -Met, -Ade, -His) with 5 µM and 500 µM methionine, 72 hr at 28 °C

| Molecule | binding [1] | binding [2] |
| --- | --- | --- |
| BRI1, RFP or mCherry acceptor fusion for FRET-FLIM (from UniProt O22476 24-1196) (receptor) | binds |  |
| CNGC10 (cyclic nucleotide-gated ion channel 10), Cub fusion for the mating-based split-ubiquitin system (protein, UniProt Q9LNJ0 1-711) MAFSHDNRVRFKDEGKPLSSEYGYGRKARPSLDRVFKNVKWGFKKPLSFPSHKDPDHKETSSVTRKNIINPQDSFLQNWNKIFLFACVVALAIDPLFFYIPIVDSARHCLTLDSKLEIAASLLRTLIDAFYIIHIVFQFRTAYIAPSSRVFGRGELVDDAKAIALKYLSSYFIIDLLSILPLPQIVVLAVIPSVNQPVSLLTKDYLKFSIIAQYVPRILRMYPLYTEVTRTSGIVTETAWAGAAWNLSLYMLASHVFGALWYLISVEREDRCWQEACEKTKGCNMKFLYCENDRNVSNNFLTTSCPFLDPGDITNSTIFNFGIFTDALKSGVVESHDFWKKFFYCFWWGLRNLSALGQNLQTSKFVGEIIFAISICISGLVLFALLIGNMQKYLESTTVREEEMRVRKRDAEQWMSHRMLPEDLRKRIRRYEQYRWQETRGVEEETLLRNLPKDLRRDIKRHLCLDLLKKVPLFEIMDEQLLDAVCDRLRPVLYTENSYVIREGDPVGEMLFVMRGRLVSATTNGGRSGFFNAVNLKASDFCGEDLLPWALDPQSSSHFPISTRTVQALTEVEAFALTAEDLKSVASQFRRLHSKQLQHTFRFYSVQWRTWSVSFIQAAWRRYCRRKLAKSLRDEEDRLREALASQDKEHNAATVSSSLSLGGALYASRFASNALHNLRHNISNLPPRYTLPLLPQKPTEPDFTANHTTDP |  | binds |
| BAK1 (BRI1-activating kinase 1), fusion for the mating-based split-ubiquitin system (receptor, UniProt Q94F62 26-615) NAEGDALSALKNSLADPNKVLQSWDATLVTPCTWFHVTCNSDNSVTRVDLGNANLSGQLVMQLGQLPNLQYLELYSNNITGTIPEQLGNLTELVSLDLYLNNLSGPIPSTLGRLKKLRFLRLNNNSLSGEIPRSLTAVLTLQVLDLSNNPLTGDIPVNGSFSLFTPISFANTKLTPLPASPPPPISPTPPSPAGSNRITGAIAGGVAAGAALLFAVPAIALAWWRRKKPQDHFFDVPAEEDPEVHLGQLKRFSLRELQVASDNFSNKNILGRGGFGKVYKGRLADGTLVAVKRLKEERTQGGELQFQTEVEMISMAVHRNLLRLRGFCMTPTERLLVYPYMANGSVASCLRERPESQPPLDWPKRQRIALGSARGLAYLHDHCDPKIIHRDVKAANILLDEEFEAVVGDFGLAKLMDYKDTHVTTAVRGTIGHIAPEYLSTGKSSEKTDVFGYGVMLLELITGQRAFDLARLANDDDVMLLDWVKGLLKEKKLEALVDVDLQGNYKDEEVEQLIQVALLCTQSSPMERPKMSEVVRMLEGDGLAERWEEWQKEEMFRQDFNYPTHHPAVSGWIIGDSTSQIENEYPSGPR |  | binds |
| BAK1, RFP or mCherry acceptor fusion for FRET-FLIM (receptor, UniProt Q94F62 26-615) NAEGDALSALKNSLADPNKVLQSWDATLVTPCTWFHVTCNSDNSVTRVDLGNANLSGQLVMQLGQLPNLQYLELYSNNITGTIPEQLGNLTELVSLDLYLNNLSGPIPSTLGRLKKLRFLRLNNNSLSGEIPRSLTAVLTLQVLDLSNNPLTGDIPVNGSFSLFTPISFANTKLTPLPASPPPPISPTPPSPAGSNRITGAIAGGVAAGAALLFAVPAIALAWWRRKKPQDHFFDVPAEEDPEVHLGQLKRFSLRELQVASDNFSNKNILGRGGFGKVYKGRLADGTLVAVKRLKEERTQGGELQFQTEVEMISMAVHRNLLRLRGFCMTPTERLLVYPYMANGSVASCLRERPESQPPLDWPKRQRIALGSARGLAYLHDHCDPKIIHRDVKAANILLDEEFEAVVGDFGLAKLMDYKDTHVTTAVRGTIGHIAPEYLSTGKSSEKTDVFGYGVMLLELITGQRAFDLARLANDDDVMLLDWVKGLLKEKKLEALVDVDLQGNYKDEEVEQLIQVALLCTQSSPMERPKMSEVVRMLEGDGLAERWEEWQKEEMFRQDFNYPTHHPAVSGWIIGDSTSQIENEYPSGPR | binds |  |
